{"sequences": {"note": "The chains behind the UniProt entries cited, without tags or fusion partners. Residues count along the entry.", "UniProt P34152": "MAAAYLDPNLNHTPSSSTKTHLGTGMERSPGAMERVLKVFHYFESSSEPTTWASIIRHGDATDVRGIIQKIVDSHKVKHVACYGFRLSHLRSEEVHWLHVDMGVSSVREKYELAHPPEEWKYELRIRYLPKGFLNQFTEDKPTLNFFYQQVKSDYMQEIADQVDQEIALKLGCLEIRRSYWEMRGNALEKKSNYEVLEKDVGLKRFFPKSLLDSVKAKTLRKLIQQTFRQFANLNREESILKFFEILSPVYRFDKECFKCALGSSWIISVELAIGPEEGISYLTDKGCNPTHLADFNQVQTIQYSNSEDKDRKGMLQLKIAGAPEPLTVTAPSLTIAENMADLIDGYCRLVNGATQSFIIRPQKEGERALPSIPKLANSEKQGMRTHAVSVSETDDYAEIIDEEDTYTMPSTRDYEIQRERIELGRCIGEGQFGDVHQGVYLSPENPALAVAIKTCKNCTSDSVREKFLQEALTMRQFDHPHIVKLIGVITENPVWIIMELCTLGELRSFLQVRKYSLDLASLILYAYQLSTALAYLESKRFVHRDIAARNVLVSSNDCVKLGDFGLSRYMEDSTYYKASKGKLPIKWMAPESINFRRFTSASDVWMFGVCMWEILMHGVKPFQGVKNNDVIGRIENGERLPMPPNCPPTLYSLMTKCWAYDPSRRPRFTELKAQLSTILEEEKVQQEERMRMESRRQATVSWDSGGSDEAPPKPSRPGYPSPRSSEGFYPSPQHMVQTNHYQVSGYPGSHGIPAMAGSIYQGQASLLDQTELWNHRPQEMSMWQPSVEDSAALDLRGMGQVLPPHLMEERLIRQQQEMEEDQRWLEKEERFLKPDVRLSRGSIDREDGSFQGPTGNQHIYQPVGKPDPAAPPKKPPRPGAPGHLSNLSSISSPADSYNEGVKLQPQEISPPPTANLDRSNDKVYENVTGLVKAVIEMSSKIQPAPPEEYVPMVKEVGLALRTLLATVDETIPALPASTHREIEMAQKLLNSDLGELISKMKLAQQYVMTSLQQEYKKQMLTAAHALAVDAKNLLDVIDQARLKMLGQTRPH", "UniProt P02469, residues 22-1786": "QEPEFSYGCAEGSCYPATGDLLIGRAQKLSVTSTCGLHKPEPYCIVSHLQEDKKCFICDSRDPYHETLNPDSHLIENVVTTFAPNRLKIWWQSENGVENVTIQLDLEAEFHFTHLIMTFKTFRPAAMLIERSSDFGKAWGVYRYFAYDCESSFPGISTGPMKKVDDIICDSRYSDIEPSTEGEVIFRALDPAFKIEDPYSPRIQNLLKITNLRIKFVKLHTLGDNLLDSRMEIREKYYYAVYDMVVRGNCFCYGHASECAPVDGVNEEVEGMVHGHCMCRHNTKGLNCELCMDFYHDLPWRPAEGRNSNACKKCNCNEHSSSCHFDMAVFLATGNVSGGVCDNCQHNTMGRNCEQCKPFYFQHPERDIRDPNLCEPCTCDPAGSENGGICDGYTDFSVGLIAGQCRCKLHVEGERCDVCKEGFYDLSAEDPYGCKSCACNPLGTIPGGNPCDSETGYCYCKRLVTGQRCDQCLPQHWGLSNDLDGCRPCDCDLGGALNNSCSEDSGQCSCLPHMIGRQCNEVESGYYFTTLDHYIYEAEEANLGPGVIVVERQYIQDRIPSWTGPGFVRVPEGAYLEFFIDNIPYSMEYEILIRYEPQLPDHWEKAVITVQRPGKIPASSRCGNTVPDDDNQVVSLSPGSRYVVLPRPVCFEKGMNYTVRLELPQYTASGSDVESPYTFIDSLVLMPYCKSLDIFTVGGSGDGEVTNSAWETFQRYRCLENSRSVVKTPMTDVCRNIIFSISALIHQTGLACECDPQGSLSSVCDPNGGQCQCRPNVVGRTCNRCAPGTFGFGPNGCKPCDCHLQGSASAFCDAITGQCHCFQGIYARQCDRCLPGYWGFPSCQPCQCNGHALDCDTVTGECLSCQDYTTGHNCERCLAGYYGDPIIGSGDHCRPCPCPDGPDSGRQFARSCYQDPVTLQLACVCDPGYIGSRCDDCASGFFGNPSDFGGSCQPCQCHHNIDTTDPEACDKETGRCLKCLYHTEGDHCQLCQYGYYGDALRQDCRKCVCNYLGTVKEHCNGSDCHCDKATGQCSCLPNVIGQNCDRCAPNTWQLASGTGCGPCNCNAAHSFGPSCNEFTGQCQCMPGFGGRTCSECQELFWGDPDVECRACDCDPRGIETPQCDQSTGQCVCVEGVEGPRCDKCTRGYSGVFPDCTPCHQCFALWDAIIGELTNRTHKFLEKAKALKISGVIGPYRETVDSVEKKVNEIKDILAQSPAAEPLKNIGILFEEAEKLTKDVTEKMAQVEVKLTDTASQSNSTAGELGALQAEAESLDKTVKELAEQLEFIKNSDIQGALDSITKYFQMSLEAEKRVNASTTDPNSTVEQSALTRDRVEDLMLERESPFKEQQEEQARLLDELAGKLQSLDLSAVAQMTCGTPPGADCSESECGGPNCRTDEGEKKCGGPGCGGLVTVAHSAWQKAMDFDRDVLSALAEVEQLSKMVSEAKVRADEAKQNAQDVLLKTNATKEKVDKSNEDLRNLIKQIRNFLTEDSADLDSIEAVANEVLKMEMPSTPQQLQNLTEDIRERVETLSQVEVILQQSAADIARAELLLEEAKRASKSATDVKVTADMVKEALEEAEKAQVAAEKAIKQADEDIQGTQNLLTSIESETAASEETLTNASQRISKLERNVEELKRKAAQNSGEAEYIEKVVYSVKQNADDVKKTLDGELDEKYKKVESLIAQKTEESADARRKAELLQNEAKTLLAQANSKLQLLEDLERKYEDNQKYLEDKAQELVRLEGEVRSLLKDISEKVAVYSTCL"}, "source": "paper PMC8917190", "biological_target": "focal adhesion kinase (mouse (endogenous in chondrocytes of newborn C57BL/6J mice)) (UniProt P34152)", "test": "co-IP; Pierce co-immunoprecipitation kit; anti-FAK antibody (bait) bound to the resin, incubated with chondrocyte lysate overnight (12-16 h); eluate probed by western blot", "note": "No constants are given. Whether binding was seen depends on the method and setting. In cells and extracts the contact can be indirect. Some results given as binding are weak or reduced against the parent protein; the word gives no strength.", "data": [{"substance": "laminin β1 (from UniProt P02469 22-1786)", "values": [{"measurement": "binding", "value": "binds"}]}]}
